In assay [1] the target is UBE4B, endogenous (human (endogenous in 22Rv1 and C4-2)) (UniProt O95155). Kind of assay: co-IP; 22Rv1 cells with STARD4 overexpression plasmid and C4-2 cells with STARD4 knockdown plasmid; IP with IgG or an anti-UBE4B antibody, western blotting. For orientation: Immunoblotting shows a protein as a band on a membrane.
Assay [2] addresses Flag-tagged UBE4B (human) (UniProt O95155). Kind of assay: co-IP; 22Rv1 cell lysates immunoprecipitated with an anti-Flag antibody (Flag-UBE4B or Flag-FANCG), western blotting for STARD4 and AR.
Assay [3] deals with Androgen receptor (AR), endogenous (human (endogenous in 22Rv1 and C4-2)) (UniProt P10275). Kind of assay: co-IP; 22Rv1 and C4-2 whole-cell lysates, IP with STARD4, AR or IgG antibodies overnight at 4 °C, magnetic beads, western blotting.
Assay [4] has as its target Flag-tagged AR (full-length) (human (Gene ID 367 is the human gene)) (UniProt P10275). The assay can be described thus: co-IP; 293T cells transfected with HA-labelled STARD4 and Flag-labelled AR or AR domain plasmids, western blotting.

By UniProt entry, the sequences of proteins in these tests, tags left out.
UniProt O95155: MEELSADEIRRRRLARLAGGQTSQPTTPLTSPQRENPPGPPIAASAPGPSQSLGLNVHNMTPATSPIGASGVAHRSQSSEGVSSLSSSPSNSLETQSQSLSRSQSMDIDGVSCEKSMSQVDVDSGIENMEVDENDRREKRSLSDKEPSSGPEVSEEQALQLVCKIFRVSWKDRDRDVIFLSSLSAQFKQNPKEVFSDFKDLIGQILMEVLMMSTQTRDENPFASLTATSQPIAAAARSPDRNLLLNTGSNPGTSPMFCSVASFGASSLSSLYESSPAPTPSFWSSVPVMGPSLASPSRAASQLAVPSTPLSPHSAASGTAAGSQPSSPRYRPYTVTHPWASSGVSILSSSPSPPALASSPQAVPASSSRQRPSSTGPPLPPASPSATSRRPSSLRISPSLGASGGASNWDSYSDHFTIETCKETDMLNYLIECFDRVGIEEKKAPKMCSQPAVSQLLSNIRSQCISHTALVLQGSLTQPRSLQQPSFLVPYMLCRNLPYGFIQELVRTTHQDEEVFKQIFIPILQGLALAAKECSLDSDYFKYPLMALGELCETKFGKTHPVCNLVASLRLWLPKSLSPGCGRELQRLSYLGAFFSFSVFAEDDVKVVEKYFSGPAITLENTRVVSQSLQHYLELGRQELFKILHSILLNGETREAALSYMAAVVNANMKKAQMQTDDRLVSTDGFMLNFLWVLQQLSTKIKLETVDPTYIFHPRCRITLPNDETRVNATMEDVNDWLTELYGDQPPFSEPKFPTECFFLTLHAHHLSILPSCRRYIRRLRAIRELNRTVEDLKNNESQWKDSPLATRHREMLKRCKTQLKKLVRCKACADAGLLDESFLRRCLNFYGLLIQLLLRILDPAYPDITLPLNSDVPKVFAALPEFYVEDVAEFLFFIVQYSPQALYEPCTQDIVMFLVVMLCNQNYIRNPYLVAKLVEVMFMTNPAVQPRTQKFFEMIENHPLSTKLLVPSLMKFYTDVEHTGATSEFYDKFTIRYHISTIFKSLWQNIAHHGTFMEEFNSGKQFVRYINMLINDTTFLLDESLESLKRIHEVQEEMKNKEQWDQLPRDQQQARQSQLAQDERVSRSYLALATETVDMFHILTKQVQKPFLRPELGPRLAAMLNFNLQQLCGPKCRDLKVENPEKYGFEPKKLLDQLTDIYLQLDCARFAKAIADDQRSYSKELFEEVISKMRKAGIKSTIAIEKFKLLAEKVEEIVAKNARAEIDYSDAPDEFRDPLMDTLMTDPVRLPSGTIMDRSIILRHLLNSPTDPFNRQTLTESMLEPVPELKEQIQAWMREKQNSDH
UniProt P10275: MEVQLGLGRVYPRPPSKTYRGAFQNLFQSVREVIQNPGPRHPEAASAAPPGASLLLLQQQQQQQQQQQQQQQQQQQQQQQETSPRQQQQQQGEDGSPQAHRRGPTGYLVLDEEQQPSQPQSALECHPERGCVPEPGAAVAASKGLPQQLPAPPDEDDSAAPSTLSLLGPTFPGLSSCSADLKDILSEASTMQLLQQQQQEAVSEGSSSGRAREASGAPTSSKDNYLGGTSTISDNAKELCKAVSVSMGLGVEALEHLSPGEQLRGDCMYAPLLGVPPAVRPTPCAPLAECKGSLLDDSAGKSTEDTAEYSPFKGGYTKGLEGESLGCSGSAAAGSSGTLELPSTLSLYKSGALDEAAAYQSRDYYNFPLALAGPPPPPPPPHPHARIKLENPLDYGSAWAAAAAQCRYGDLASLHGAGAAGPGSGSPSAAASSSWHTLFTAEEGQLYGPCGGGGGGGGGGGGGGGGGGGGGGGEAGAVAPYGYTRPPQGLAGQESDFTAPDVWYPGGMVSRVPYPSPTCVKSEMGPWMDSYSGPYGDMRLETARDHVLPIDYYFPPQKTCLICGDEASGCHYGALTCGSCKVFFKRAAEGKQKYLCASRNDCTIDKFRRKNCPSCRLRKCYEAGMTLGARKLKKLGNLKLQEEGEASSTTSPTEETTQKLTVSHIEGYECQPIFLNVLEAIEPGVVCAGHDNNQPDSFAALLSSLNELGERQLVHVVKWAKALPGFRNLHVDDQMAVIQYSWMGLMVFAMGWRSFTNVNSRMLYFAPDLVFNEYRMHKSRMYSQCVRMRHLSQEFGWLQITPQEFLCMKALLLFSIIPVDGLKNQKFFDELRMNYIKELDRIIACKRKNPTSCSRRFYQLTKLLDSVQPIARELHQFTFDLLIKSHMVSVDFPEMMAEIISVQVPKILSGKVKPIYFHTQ

The results in this text go back to article PMC12699821, “STARD4 suppresses tumorigenesis and attenuates enzalutamide resistance via lipid metabolic reprogramming and AR stabilization in prostate cancer” (Journal of Experimental & Clinical Cancer Research : CR, 2025).

No constants are given. Whether binding was seen depends on the method and setting. In cells and extracts the contact can be indirect. Some binding calls cover weakened binding; strength is not graded here. For some assays here: Sequences can lack the tags named with a protein.

As to “Androgen receptor (AR), endogenous (from UniProt P10275 1-920)”, the binding result in assay [1] and in assay [2] was “binds” each time.

B1: StAR-related lipid transfer domain protein 4 (STARD4), endogenous (protein, UniProt Q96DR4 1-205)
chain: MEGLSDVASFATKLKNTLIQYHSIEEDKWRVAKKTKDVTVWRKPSEEFNGYLYKAQGVIDDLVYSIIDHIRPGPCRLDWDSLMTSLDILENFEENCCVMRYTTAGQLWNIISPREFVDFSYTVGYKEGLLSCGISLDWDEKRPEFVRGYNHPCGWFCVPLKDNPNQSLLTGYIQTDLRGMIPQSAVDTAMASTLTNFYGDLRKAL
As to B1, the binding result in assay [3] and in assay [2] was “binds” each time.

B2: HA-tagged STARD4 (protein, UniProt Q96DR4 1-205)
chain: B1 chain
Regarding B2, the binding entry in assay [4] is on record as “binds”.
